These are yes or no findings as the source states them, for the method shown.
Target: T1, PHYTOCHROME … FACTOR 4 (PIF4), two-hybrid bait in pGBT9 (Arabidopsis thaliana) (UniProt Q8W2F3)
T1 sequence: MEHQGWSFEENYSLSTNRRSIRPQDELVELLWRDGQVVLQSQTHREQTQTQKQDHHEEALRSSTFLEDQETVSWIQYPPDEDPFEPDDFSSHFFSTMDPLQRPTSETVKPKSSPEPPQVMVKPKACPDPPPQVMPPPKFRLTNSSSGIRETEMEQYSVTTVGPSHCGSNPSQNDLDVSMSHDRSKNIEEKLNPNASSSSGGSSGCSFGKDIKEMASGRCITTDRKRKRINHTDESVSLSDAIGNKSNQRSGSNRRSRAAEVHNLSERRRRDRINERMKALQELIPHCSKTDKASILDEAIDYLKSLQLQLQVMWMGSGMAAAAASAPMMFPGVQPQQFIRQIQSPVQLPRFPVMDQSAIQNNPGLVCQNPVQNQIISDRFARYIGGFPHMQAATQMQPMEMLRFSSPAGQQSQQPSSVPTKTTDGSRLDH
Assay: two-hybrid; PIF4 as bait in pGBT9, HEC2 or mHEC2 as preys in pGADT7; yeast strain Y187, selected on -Leu, -Trp medium; beta-galactosidase assay

Chains of the proteins cited; added tags and fusions are not shown. Lines headed by an entry give the natural chain unless they say otherwise; changes in a name come on top.
UniProt Q9SND4: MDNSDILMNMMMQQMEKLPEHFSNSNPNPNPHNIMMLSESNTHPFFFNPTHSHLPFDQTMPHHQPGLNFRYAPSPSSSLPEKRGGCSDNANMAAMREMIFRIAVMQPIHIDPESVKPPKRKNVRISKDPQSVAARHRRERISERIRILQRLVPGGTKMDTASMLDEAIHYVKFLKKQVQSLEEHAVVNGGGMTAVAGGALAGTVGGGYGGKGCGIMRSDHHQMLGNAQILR

binding: no binding
Substance: dimerization-defective mutant HEC2 (mHEC2), two-hybrid prey in pGADT7 (from UniProt Q9SND4)

From paper PMC8195427
